PubChem BioAssay AID588497 (NMMLSC, 2011)
Several values for one entry are separate records, joined by “and”; a condition that tells them apart may be missing. Equal entries are not always repeated. About 780 (0.22%) of roughly 360,000 compounds were called active. Inconclusive means that the source gave no clear call. Such entries were picked first, then a sample of the others. Rule as the data show it: active = inhibition above about 35% (passing the limit was not always enough); inconclusive = no clear call, values can overlap the other calls.

test system: Botulinum neurotoxin type F light chain protease (Clostridium botulinum); test: BoNT/F light chain protease inhibitors, primary screen, biochemical, flow cytometry, MLPCN library (AID 588497); details: Multiplex microsphere protease cleavage assay, at 10 µM, stronger effect = higher value; also: plate controls were buffer without enzyme for full effect and enzyme alone for no effect

Compound	inhibition
O=C(COC(=O)c1ccc(S(=O)(=O)N2CCCCC2)cc1)NCc1ccc(F)cc1	inactive: 10.2%
Fc1ccc(C2N(c3ccccc3)C(=S)N3CCCN23)cc1 (centres undefined)	inconclusive: -20.7%
c1ccc(-n2cc(CN3CCC(N4CCOCC4)CC3)c(-c3ccc4c(c3)OCO4)n2)cc1	inactive: -2.8%
O=C(N/N=C/c1ccc(C(F)(F)F)cc1)c1ccncc1	inconclusive: -6.1%
CCN(CC(=O)NCc1ccc(F)cc1)C(=O)c1cccnc1SC	inactive: -5%
O=[N+]([O-])c1cccnc1N1CCN(c2ccc(F)cc2)CC1	inactive: -0.1%
COc1cccc(-c2cc(C(=O)N/N=C/c3cccc(OC)c3OC)c3ccccc3n2)c1	inconclusive: 33%
CC(=O)Nc1ccc(OC(=O)c2cc([N+](=O)[O-])ccc2Cl)cc1	inactive: 5.7%
O=C1CSC(=Nc2ccc(Cl)cc2)N1Cc1cccnc1	inconclusive: -46.3%
COc1cccc(C(=O)Nc2sc3c(c2C(=O)O)CCCC3)c1	inconclusive: -0.7%
Cc1cc(C(=O)NNc2ccc(F)cc2F)no1	inconclusive: 65.1%
O=c1ccc2cc(S(=O)(=O)N3CCN(c4cc(Cl)ccc4Cl)CC3)ccc2o1	inactive: -5.9%
Nc1cc(S(=O)(=O)Nc2ccccc2Cl)ccc1N1CCCCC1	inactive: 2.1%
CCc1nnc(NC(=O)CSc2nnc(C)n2-c2ccc(C)cc2)s1	inactive: 1.5%
CC1(C)CC2(C)OC2C2(C1)N=NC(=Nc1ccccc1)O2 (centres undefined)	inactive: -3.4%
N/C(=N\NC(=O)Nc1ccccc1)c1ccccn1	inconclusive: -47.9%
Cc1ccc(S(=O)(=O)N2CCOCCOCCOCCOCCOCC2)cc1	inconclusive: -34.3%
O=C(N1CCN(c2cccc(Cl)c2)CC1)C1(S(=O)(=O)c2ccc(Cl)cc2)CC1	inactive: 10%
O=C(O)c1cc(NC(=O)c2ccccc2F)cc(NC(=O)c2ccccc2F)c1	inconclusive: 29.1%
CN(CC(=O)Nc1ccc2c(c1)OCO2)CC(=O)Nc1ccc(F)c(F)c1F	inactive: 5.1%
CN1CCN(S(=O)(=O)c2ccc(NC(=S)NC(=O)c3ccccc3)cc2)CC1	inconclusive: 20.4%
O=C1Nc2ccc(Br)cc2C1Cc1ccccc1F (centres undefined)	inconclusive: 12.8%
CNc1nc(Oc2ccccc2C(=O)OC)nc(SC)n1	inactive: 5%
CC(=O)O/N=C(\N)Cc1ccc(-c2csnn2)cc1	inconclusive: -57.8%

Compound	inhibition
O=C(c1ccccc1F)N1CCCc2ccccc21	inactive: 33.7%
N#CCC(=O)Nc1ccc(C(=O)NNC(=S)NC2CC2)cc1	inconclusive: -3.5%
CN(C1=NS(=O)(=O)N=C(N(C)c2ccccc2)O1)c1ccccc1	inactive: 2.4%
COCCCNC(=O)COC(=O)c1ccc(-c2nc3ccccc3s2)s1	inactive: -0.2%
CCOc1ccc(S(=O)(=O)N/N=C\c2ccc3c(c2)OCO3)cc1	inconclusive: 3.1%
Cc1ccc(S(=O)(=O)c2cc3ccccc3nc2N)cc1	inactive: 4.6%
CC(C)Sc1nc2ccccc2n2cnnc12	inconclusive: -4.4%
O=C(Nc1nc2c(s1)CCc1ccccc1-2)c1ccco1	inconclusive: -3.3%
CC(=O)NS(=O)(=O)c1ccc(NC(=S)Nc2ccccc2)cc1	inconclusive: 20.1%
CC(=O)Nc1ccc(OCC(=O)NC(C)C(C)C)cc1 (centres undefined)	inconclusive: -16.9%
CCCC(=O)N1CCN(c2ccc([N+](=O)[O-])c(NC(C)c3ccccc3)c2)CC1 (centres undefined)	inactive: -3.9%
COc1ccc(Cl)cc1C(=O)NNC(=O)c1csc(N2CCOCC2)n1	inconclusive: -9.1%
C[C@H](CO)N1C[C@H](C)[C@@H](CN(C)Cc2ccncc2)Oc2ccc(NC(=O)CCCCCC(=O)Nc3ccccc3N)cc2C1=O	inactive: 2.8%
CCCCOC(=O)N1CCOCCOCCOCCOCC1	inconclusive: 46.6%
O=C(C[n+]1cc(-c2ccc(Cl)cc2)n2c1CCC2)Nc1nc(-c2ccc(F)cc2)cs1	inconclusive: -30.1%
NC1=NC(c2ccccc2C(F)(F)F)N(c2ccc(F)c(Cl)c2)C(N)=N1 (centres undefined)	inactive: 5.7%
Cc1cc(C(=O)NC(Cc2c[nH]c3ccccc23)C(=O)O)c(C)o1 (centres undefined)	inconclusive: 12.5%
COc1cc(NC(=S)N2CCN(C)CC2)cc(OC)c1	inconclusive: -5.7%
Cc1ccccc1CSc1nnc([C@@H]2CCCN2)o1	inactive: 0.1%
CCOC(=O)c1c(NC(=O)COC(=O)CCCOc2ccc(OC)cc2)sc(C(=O)N(C)C)c1C	inconclusive: 3.2%
Nc1cccc(Oc2c(F)c(F)c(Oc3cccc(N)c3)c(F)c2F)c1	active: 38.4%
Cc1cccc(N2CCN(C(=O)CCc3nc4ccccc4c(=O)[nH]3)CC2)c1C	inactive: 2.5%
CN(C)S(=O)(=O)c1cccc(NC(=O)CCNC(=O)c2ccccc2Cl)c1	inactive: 2.4%
O=C(O)CCC(=O)Nc1sc2c(c1C(=O)NCc1ccccc1)CCCC2	inconclusive: -19.9%

Compound	inhibition
COc1ccc(Cl)c(-c2cc(C(=O)Nc3ccccc3)[nH]n2)c1	inactive: 4.6%
CC1CC(C)CN(C(=O)c2ccc(-c3ccc([N+](=O)[O-])cc3)o2)C1 (centres undefined)	inconclusive: 19.2%
Cc1ccc(-n2cc(CCCCCCCCC(=O)O)nn2)cc1	inactive: 0.9%
Cc1ccccc1OCC(=O)N1CCc2ccccc2C1	inconclusive: 24.6%
Cc1ccc(C(=O)NCc2ccc(N3CCN(C)CC3)cc2)cc1C	inconclusive: 16.4%
COc1ccc(CN2CCCCCC2)cc1Br	inconclusive: -1.4%
O=S(=O)(Nc1ccc2nc(N3CCOCC3)sc2c1)c1ccc(Cl)cc1	inactive: -12%
CCOC(=O)c1cnn2c(C)cc(-c3ccccc3)nc12	inactive: 11.2%
NS(=O)(=O)c1ccc(-n2nncc2C23CC4CC(CC(C4)C2)C3)cc1	inactive: 11.3%
Cn1nc(C(C)(C)C)cc1NC(=O)Nc1ccc(Cl)cc1	inconclusive: 58.3%
COc1cc(CNCc2ccc(OC)cc2OC)cc(OC)c1	inconclusive: 25.3%
CC(C)Sc1n[nH]c(=O)n1-c1ccccc1	inconclusive: -64.7%
CC(=O)Nc1cccc(C(=O)N/N=C/c2ccc(F)cc2)c1	inactive: -3.2%
CCC(=O)c1ccc(OCC(O)Cn2cnc3ccccc32)cc1 (centres undefined)	inconclusive: -17.2%
COc1ccc(-n2c(=S)[nH]c3cc(C(=O)NCc4ccco4)ccc3c2=O)cc1OC	inactive: -3.3% and inconclusive: -47%
O=C(CCCCCCCC(=O)NCC1CCCO1)NCC1CCCO1 (centres undefined)	inconclusive: 6.7%
O=C(Nc1ccccc1)OCCOc1ccc(Br)cc1	inconclusive: 2.8%
COc1cc(SC)ccc1C(=O)NCCN1CCOCC1	inconclusive: 119%
Cc1ccc(OCC(=O)NCCCNC(=O)COc2ccc(C)cc2)cc1	inconclusive: 7.8%
C=CCn1c(O)c2ccc(C(=O)N=NC(=O)c3ccc(F)cc3)cc2c1O	inconclusive: -7.6%
N/C(=N\OC(=O)c1cc([N+](=O)[O-])ccc1Cl)c1cccnc1	inconclusive: 48.8%
NCCCCCc1nnc(SCc2ccc(Cl)cc2Cl)o1	inconclusive: -15.9%
CCCC(c1nnnn1Cc1ccc(OC)cc1)N1CCN(c2ccccc2)CC1 (centres undefined)	inconclusive: -13.4%
N#CN=C1SCCS1	inconclusive: -0.7%

Compound	inhibition
O=C(Oc1ccccc1N1CCOCC1)c1sccc1Br	inconclusive: -79.9%
CCOC(=O)NCc1cc(-c2nn(C)c(=O)c3ccccc23)ccc1C	inconclusive: -2.6%
Cc1ccc(Cl)cc1N1CCN(Cc2cc3c(cc2O)CCC3)CC1	inconclusive: 5.9%
O=c1c(-c2ccccc2)coc2c(CN3CCCC3)c(O)ccc12	inactive: -4.4%
CN1C(=O)[C@H]2[C@@H](c3ccc(C(F)(F)F)cc3)N[C@]3(CCCN(Cc4ccc(Cl)cc4)C3=O)[C@H]2C1=O	inactive: 0.9%
O=C(Nc1ccccc1F)C1CCCC1	inconclusive: -20%
COc1ccc(-c2noc(CCC(=O)NC3CCCCCC3)n2)cc1OC	inactive: -2.7%
C(=N\Nc1nc(-c2cccnc2)nc2ccccc12)/c1ccccc1	inconclusive: -92%
COc1ccc(C2c3ccsc3CCN2C(C)=O)cc1 (centres undefined)	inconclusive: 1.8%
Clc1ccccc1-c1nc(-c2ccncc2)no1	inconclusive: -19.5%
O=C(O)c1cc(S(=O)(=O)NC(Cc2c[nH]c3ccccc23)C(=O)O)ccc1Cl (centres undefined)	inactive: -16.2%
O=C(c1cccs1)c1c[nH]cc1-c1ccccc1	inconclusive: -3.9%
Nc1cccc(CCc2ccncc2)c1	inconclusive: -8.6%
CN(C(=O)CSc1nnc(C2CC2)n1-c1ccccc1)C1CCS(=O)(=O)C1 (centres undefined)	inactive: -3%
Cc1ccc(CNC(=O)CCC(=O)n2ncc3cc(C)ccc32)cc1	inactive: 1.9%
O=C(O)c1ccc(NC(=O)c2ccccc2NC(=O)c2ccccc2Cl)cc1	inconclusive: -4%
Cc1nc(C(=O)NNC(=O)c2c(-c3c(Cl)cccc3Cl)noc2C)cs1	inconclusive: 28.4%
O=C(CCNC(=O)c1ccccc1Cl)Nc1cccc(S(=O)(=O)N2CCCC2)c1	inactive: -3.7%
Cc1ccc(CN2C(=O)CSC2c2cccnc2)cc1 (centres undefined)	inconclusive: -188%
O=C(O)c1nccnc1C(=O)Nc1ccccc1-c1ccccc1	inconclusive: -122%
Cc1cc(C)cc(NC(=O)C2CCN(S(C)(=O)=O)CC2)c1	inactive: -3.5%
O=C(Cc1ccc(Cl)cc1)NC1CCCCCC1	active: 39.8%

Molecules from the list above that have a nitro group on carbon (5):
Compound	inhibition
O=[N+]([O-])c1cccnc1N1CCN(c2ccc(F)cc2)CC1	inactive: -0.1%
CC(=O)Nc1ccc(OC(=O)c2cc([N+](=O)[O-])ccc2Cl)cc1	inactive: 5.7%
CCCC(=O)N1CCN(c2ccc([N+](=O)[O-])c(NC(C)c3ccccc3)c2)CC1 (centres undefined)	inactive: -3.9%
CC1CC(C)CN(C(=O)c2ccc(-c3ccc([N+](=O)[O-])cc3)o2)C1 (centres undefined)	inconclusive: 19.2%
N/C(=N\OC(=O)c1cc([N+](=O)[O-])ccc1Cl)c1cccnc1	inconclusive: 48.8%
